Paper PMC2741464
The exact form of at least one protein or probe is not confirmed. Weaker means in comparison with the reference protein, sequence or condition of that experiment. For part of these data: At least one verdict rests on a figure or table, not on a statement of the authors.

Chains of the proteins cited; added tags and fusions are not shown. Lines headed by an entry give the natural chain unless they say otherwise; changes in a name come on top. A line that says so, or that is headed by a name, gives the form on record, which may keep a tag or linker.
Ku70/Ku80 heterodimer, wild type (human), one chain, as listed by the source, chain 1 of 2: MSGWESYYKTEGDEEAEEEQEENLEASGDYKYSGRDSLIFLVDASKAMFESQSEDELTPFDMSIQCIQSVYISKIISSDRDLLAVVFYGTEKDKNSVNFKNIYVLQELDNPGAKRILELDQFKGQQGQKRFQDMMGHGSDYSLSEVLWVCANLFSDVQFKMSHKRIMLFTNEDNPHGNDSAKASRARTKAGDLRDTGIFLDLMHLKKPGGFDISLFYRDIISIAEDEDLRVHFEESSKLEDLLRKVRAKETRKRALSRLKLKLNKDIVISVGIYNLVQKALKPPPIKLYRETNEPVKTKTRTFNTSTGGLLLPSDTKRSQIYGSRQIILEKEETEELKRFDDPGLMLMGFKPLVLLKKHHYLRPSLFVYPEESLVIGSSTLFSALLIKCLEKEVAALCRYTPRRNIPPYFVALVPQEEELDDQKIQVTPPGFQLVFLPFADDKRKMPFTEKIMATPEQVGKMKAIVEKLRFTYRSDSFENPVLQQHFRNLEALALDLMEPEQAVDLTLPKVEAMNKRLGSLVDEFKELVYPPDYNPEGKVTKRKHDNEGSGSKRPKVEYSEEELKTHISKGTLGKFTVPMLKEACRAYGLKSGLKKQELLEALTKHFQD

Experiments:
[1] = test system: Ku70/Ku80 heterodimer, wild type (human); assay: EMSA; conditions: EMSA: 20 μl, 500 fmol DNA, oxidation 2 mM diamide 15 min on ice, re-reduction 5 mM DTT 15 min on ice, binding temperature not stated, recombinant protein, protein details: His6 on Ku70, label: 32P
[2] = test system: Ku70/Ku80 C493A (human); assay: EMSA; conditions: oxidized, diamide (0-2 mM); EMSA: 20 μl, 500 fmol DNA; oxidation 2 mM diamide 15 min on ice, re-reduction 5 mM DTT 15 min on ice; binding temperature not stated; recombinant protein; protein details: His6 on Ku70; label: 32P
[3] = test system: Ku70/80ΔC (human); assay: EMSA; conditions: EMSA: 20 μl, 500 fmol DNA, oxidation 2 mM diamide 15 min on ice, re-reduction 5 mM DTT 15 min on ice, binding temperature not stated, recombinant protein, label: 32P
[4] = test system: Ku70/Ku80 heterodimer, wild type (human); assay: fluorescence polarization; conditions: oxidized, 2 mM diamide, minimal binding, no Kd determinable; 50 mM Tris-HCl pH 7.8, 10 mM MgCl2, 50 mM NaCl (FP: plus 1 mM DTT, 0.5 ml); recombinant protein; protein details: His6 on Ku70
[5] = test system: Ku70/Ku80 C493A (human); assay: fluorescence polarization; conditions: 50 mM Tris-HCl pH 7.8, 10 mM MgCl2, 50 mM NaCl (FP: plus 1 mM DTT, 0.5 ml), recombinant protein, protein details: His6 on Ku70
[6] = test system: Ku70/80ΔC (human); assay: fluorescence polarization; conditions: 50 mM Tris-HCl pH 7.8, 10 mM MgCl2, 50 mM NaCl (FP: plus 1 mM DTT, 0.5 ml), recombinant protein
[7] = test system: Ku70/Ku80 C493S (human); assay: fluorescence polarization; conditions: 50 mM Tris-HCl pH 7.8, 10 mM MgCl2, 50 mM NaCl (FP: plus 1 mM DTT, 0.5 ml), recombinant protein, protein details: His6 on Ku70
[8] = re-reduced: 2 mM diamide then 5 mM DTT, restored but not fully
[9] = oxidized, 2 mM diamide, minimal binding (data not shown)
[10] = reduced, identical to wild type (data not shown)

CCCCTATCCTTTCCGCGTCCTTACTTCCCC (double strand) [30-bp duplex 30A/30C (EMSA)]
binding result ([1]; oxidized, diamide (0-2 mM)): binds more weakly | binding result [1, 8]: binds more weakly | binding result [2]: binds more weakly | binding result ([3]; oxidized, 2 mM diamide): binds more weakly | binding result [3, 8]: binds more weakly

CCCCTATCCTTTCCGCGTCCTTACTTCCCC (double strand) [30-bp duplex 30A/30C, fluorescein (polarization)]
binding result [4]: binds more weakly | binding result [5, 9]: binds more weakly | binding result [5, 10]: binds | binding result ([6]; oxidized, 2 mM diamide, minimal binding, no Kd determinable): binds more weakly | Kd ([6]; re-reduced: 2 mM diamide then 5 mM DTT, printed as <50 though text says incomplete recovery): < 50000 nM | binding result [7, 9]: binds more weakly | binding result [7, 10]: binds
